Reference: article PMC9428752
No constants are given. Whether binding was seen depends on the method and setting. In cells and extracts the contact can be indirect. These calls come from enrichment with a bait or labelling near it, and not all partners need be listed.

Amino acid sequences for entries named in this document (tags omitted). A change or cut given only in a name is not applied to a line headed by its entry. Residues count along the entry.
UniProt O00478, residues 30-584: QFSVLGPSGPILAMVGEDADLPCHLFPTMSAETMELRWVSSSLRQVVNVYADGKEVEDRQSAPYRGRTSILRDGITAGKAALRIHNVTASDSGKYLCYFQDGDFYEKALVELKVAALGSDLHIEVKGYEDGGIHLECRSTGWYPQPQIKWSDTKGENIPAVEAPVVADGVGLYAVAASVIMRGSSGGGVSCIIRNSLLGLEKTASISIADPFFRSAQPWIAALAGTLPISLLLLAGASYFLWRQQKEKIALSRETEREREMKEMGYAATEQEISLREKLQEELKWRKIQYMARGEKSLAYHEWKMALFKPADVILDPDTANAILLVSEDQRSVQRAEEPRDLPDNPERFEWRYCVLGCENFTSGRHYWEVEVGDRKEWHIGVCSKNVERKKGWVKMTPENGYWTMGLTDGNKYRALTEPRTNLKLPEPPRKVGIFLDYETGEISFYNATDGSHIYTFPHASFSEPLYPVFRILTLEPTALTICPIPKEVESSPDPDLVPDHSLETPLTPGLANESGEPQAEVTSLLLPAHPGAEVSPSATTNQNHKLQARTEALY
UniProt P09038: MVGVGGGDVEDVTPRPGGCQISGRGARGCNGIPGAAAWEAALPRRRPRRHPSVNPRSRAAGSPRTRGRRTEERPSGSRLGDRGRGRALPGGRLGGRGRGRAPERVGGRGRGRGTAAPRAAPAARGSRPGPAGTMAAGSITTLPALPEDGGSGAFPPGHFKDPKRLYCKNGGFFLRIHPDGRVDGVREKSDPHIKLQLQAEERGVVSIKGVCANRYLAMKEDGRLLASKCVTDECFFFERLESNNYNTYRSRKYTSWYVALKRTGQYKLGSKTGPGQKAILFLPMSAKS

Target: 3 × Flag-BTN3A3 (Butyrophilin Subfamily 3 Member A3), expressed in NIH:OVCAR-3 cells (UniProt O00478)
Assay: affinity purification with mass spectrometry; 3 × Flag-BTN3A3 transfected into NIH:OVCAR-3 cells; lysate immunoprecipitated with Flag-tag antibody, SDS-PAGE, Coomassie-stained gel cut and analysed by mass spectrometry; control plasmid with 3 × Flag

In the case of “Fibroblast Growth Factor 2 (FGF2), endogenous (from UniProt P09038)”, the binding is reported as “binds”.
